The target of this assay is GFP-tagged AfRom2 CNH domain expressed in A. fumigatus (gpd-gfp-rom2 (2725-3792)) (Aspergillus fumigatus) (UniProt Q4WUI2). In words: affinity purification with mass spectrometry; GFP-Trap resin with lysate of the A. fumigatus strain expressing gpd-gfp-cnh, gpd-gfp strain as control; washes with 350 mM NaCl; eluted proteins analysed by LC-MS.

By UniProt entry, the sequences of proteins in these tests, tags left out.
UniProt A0A068C8U8: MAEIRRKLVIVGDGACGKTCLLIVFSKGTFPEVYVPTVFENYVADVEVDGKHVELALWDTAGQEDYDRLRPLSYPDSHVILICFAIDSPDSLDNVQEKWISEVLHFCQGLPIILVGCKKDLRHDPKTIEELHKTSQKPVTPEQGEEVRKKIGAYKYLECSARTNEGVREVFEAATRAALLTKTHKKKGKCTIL

This is an account of results in publication PMC8488606.

Results are given in words; binding and its absence hold for the method and conditions named. In cells and extracts the contact can be indirect. These calls come from enrichment with a bait or labelling near it, and not all partners need be listed.

Regarding “Rho1 (endogenous, A. fumigatus) (from UniProt A0A068C8U8 1-193)”, the binding result is “binds”.
